Experimental data published in PubChem BioAssay AID540276 (National Center for Advancing Translational Sciences (NCATS), 2011).
The whole screen tested about 300,000 compounds, of which about 5,400 (1.8%) were called active. Inconclusive means that the source gave no clear call. Such entries were picked first, then a sample of the others. Calls follow the shape of the full dose curve; tested in HEK293 cells. Potencies of inconclusive entries are doubtful fits and often do not repeat.

assay: qHTS for inhibitors of binding or entry into cells for Marburg Virus; conditions: Marburg virus pseudotyped entry inhibition, cell reporter; series mostly up to 37.8 µM
Potency is read from the fitted curve at half-maximal effect.

| Structure (SMILES) | Potency |
| --- | --- |
| Cc1ccc(NC(=O)CC(C)S(=O)(=O)c2ccc3c(c2)NC(=O)CO3)c(Cl)c1 (centres undefined) | inconclusive: 39.8 µM [inhibitor, single point] |
| COc1ccccc1N/C=C/C(=C(C#N)C#N)N(C)C | inconclusive: 3.55 µM [activator, single point] |
| O=C(CCCc1ccccn1)c1ccccc1 | inconclusive: 8.91 µM [inhibitor, partial curve, poor fit] |
| NC(=O)NC(=O)CSc1nc(C2CCCCC2)n(-c2ccccc2)n1 | inconclusive: 0.794 µM [activator, single point] |
| CCNc1ccc(C(=O)OCC(=O)NCCN2C(=O)CSC2=O)cc1[N+](=O)[O-] | inconclusive: 6.31 µM [activator, single point] |
| CCc1c(C(=O)NNC(=S)NC2CCCCC2)csc1C | inactive |
| Cc1ccc(C(=O)OCC(=O)NCCc2ccccc2)cc1S(=O)(=O)N1CCOCC1 | inconclusive: 0.891 µM [activator, single point] |
| CCCCC(CC)COC(=O)CCCCC(=O)OCC(CC)CCCC (centres undefined) | inactive |
| COc1cc(C(=O)N=c2sc3ccccc3n2C)cc(OC)c1OC | inconclusive: 4.11 µM [inhibitor, partial curve] |
| Cc1ccccc1Cn1c2ccccc2c2cnn(CC(=O)NC3CCC(C)CC3)c(=O)c21 (centres undefined) | inconclusive: 6.31 µM [inhibitor, partial curve, poor fit] |
| Cc1nc(SCC(=O)c2cccc([N+](=O)[O-])c2)n[nH]1 | inconclusive: 5.62 µM [inhibitor, single point] |
| Cc1cc(C)n(C(=O)CCC2COc3ccccc3O2)n1 (centres undefined) | inconclusive: 1.12 µM [activator, partial curve, poor fit] |
| COc1ccc2nc(SC(C(=O)c3ccccc3)c3ccccc3)nc(C)c2c1 (centres undefined) | inconclusive: 0.562 µM [inhibitor, full curve, poor fit] |
| CCOC(=O)NC(=O)CSc1nnc(C2CC2)n1Cc1ccco1 | inactive |
| O=S(=O)(c1ccc(Cl)cc1)N1CCC(N2CCOCC2)CC1 | inactive |
| O=C(NNC(=O)c1cccnc1SCc1cccc([N+](=O)[O-])c1)c1ccc(F)cc1 | inconclusive: 35.5 µM [inhibitor, single point] |
| COC(=O)CCCCCCCC(=O)Nc1nnc(C(F)(F)F)s1 | inconclusive: 1.26 µM [inhibitor, single point] |
| COc1ccc(/C=N/Nc2nc(-c3cccnc3)nc3ccccc23)cc1OC | inconclusive: 3.55 µM [inhibitor, single point] |
| COc1cccc(N2CC(C(=O)Nc3nnc(SCC(=O)N4CCOCC4)s3)CC2=O)c1 (centres undefined) | inactive |
| COc1cc([N+](=O)[O-])c2nc(C)ccc2c1[N+](=O)[O-] | inconclusive: 35.5 µM [inhibitor, single point] |
| O=C(Nc1ccc(S(=O)(=O)N2CCOCC2)cc1)C1CCN(S(=O)(=O)c2ccc(Cl)cc2)CC1 | inactive |
| Cc1ccc(S(=O)(=O)NCC(=O)N(CC(=O)NCc2ccco2)Cc2ccco2)cc1 | inconclusive: 35.5 µM [inhibitor, single point] |

| Structure (SMILES) | Potency |
| --- | --- |
| CCSc1cc(C)nc2c(-c3ccccc3)c(C)nn12 | inactive |
| CC(=O)Nc1sc(N/N=C\c2ccccc2F)nc1-c1cccs1 | inconclusive: 12.6 µM [inhibitor, single point] |
| CCOc1ccc(CSC(=N)N)cc1 | inconclusive: 10 µM [inhibitor, partial curve] |
| O=[N+]([O-])c1cc(S(=O)(=O)N2CCOCC2)ccc1OCc1cccc(Cl)c1 | inconclusive: 0.282 µM [inhibitor, partial curve, poor fit] |
| Nn1c(SCC(=O)Nc2ccc(F)cc2F)nnc1C1CCCCC1 | inactive |
| CCOC(=O)C(NC(=O)c1cccc(Cl)c1)(OCc1ccc(F)cc1)C(F)(F)F (centres undefined) | inconclusive: 5.8 µM [inhibitor, partial curve] |
| Cc1cc2c(=O)n(Cc3ccco3)c(SCC(=O)c3ccc(Cl)s3)nc2s1 | inconclusive: 6.51 µM [inhibitor, partial curve, poor fit] |
| CC(C)OC(=O)[C@H]1O[C@H](CCCCOCc2ccccc2)[C@@H](C)[C@H]2O[C@H]21 | inactive |
| Cc1noc(C)c1C(=O)Nc1cccc2ncccc12 | inactive |
| O=C(c1ccc([N+](=O)[O-])cc1)N1CCN(Cc2ccccc2)CC1 | inconclusive: 3.55 µM [activator, full curve] |
| Cc1ccccc1NC(=S)N/N=C/c1ccc(O)cc1O | inconclusive: 22.4 µM [inhibitor, single point] |
| COc1ccc(CNC(=O)c2ccc(NC(=O)N3CCSc4ccccc43)cc2)cc1 | inactive |
| COc1ccc2c(c1)CC/C(=C/c1ccncc1)C2=O | inconclusive: 10.3 µM [inhibitor, partial curve, poor fit] |
| COc1ccccc1C(=O)NCCn1ccc2ccccc21 | inconclusive: 35.5 µM [inhibitor, single point] |
| Cc1cc(C)cc(OCC(O)CN2CCN(Cc3ccc4c(c3)OCO4)CC2)c1 (centres undefined) | inconclusive: 7.08 µM [inhibitor, partial curve, poor fit] |
| CC(=O)Nc1ccc(/C(C)=N/NC(=O)c2ccc(F)cc2)cc1 | inactive |
| O=C(COc1cc(O)c2c(=O)cc(-c3ccccc3)oc2c1)c1cccc([N+](=O)[O-])c1 | inconclusive: 1.26 µM [inhibitor, partial curve, poor fit] |
| Cn1c(SCC(=O)NC(=O)NCc2ccco2)nnc1-c1ccccc1 | inconclusive: 35.5 µM [activator, single point] |
| CC(NC(=O)CSc1nc2ccc(N)cc2s1)c1ccccc1 (centres undefined) | inactive |
| CC(C)(C)c1cc(C(=O)NC2CC2)n(Cc2ccc(F)cc2)n1 | inconclusive: 35.5 µM [inhibitor, single point] |
| Cc1c(C=C2C(=O)N(C)C(=S)N(C)C2=O)c2ccccc2n1CC(=O)NCC1CCCO1 (centres undefined) | inactive |
| COc1ccc(N2C(=O)CSC2c2ccc(F)cc2)cc1 (centres undefined) | inconclusive: 1.12 µM [inhibitor, partial curve, poor fit] |

Fetched by structure from above:

| Structure (SMILES) | Potency |
| --- | --- |
| CCOC(=O)C(NC(=O)c1cccc(Cl)c1)(OCc1ccc(F)cc1)C(F)(F)F (centres undefined) | inconclusive: 5.8 µM [inhibitor, partial curve] |
| O=C(COc1cc(O)c2c(=O)cc(-c3ccccc3)oc2c1)c1cccc([N+](=O)[O-])c1 | inconclusive: 1.26 µM [inhibitor, partial curve, poor fit] |
| O=C(NNC(=O)c1cccnc1SCc1cccc([N+](=O)[O-])c1)c1ccc(F)cc1 | inconclusive: 35.5 µM [inhibitor, single point] |
